Where “and” joins values, the source holds several entries; their conditions need not be identical. Equal values may be shown once. The whole screen tested about 310,000 compounds, of which about 17,000 (5.5%) were called active. The shares of active, inactive and inconclusive entries below differ from those in the screen. Calls come from the whole dose curve; as a rule, active = well fitted inhibition curve with a large enough effect; inconclusive = small, poorly fitted or top-dose-only effect, or effect the other way; inactive = no such curve, though single readings can be large or run the other way. Where the call is inconclusive, the potency comes from a doubtful curve fit.
molecular target: Nuclear receptor ROR-gamma (Mus musculus) (UniProt P51450); experiment: qHTS for inhibitors of ROR gamma transcriptional activity; details: Drosophila S2 Gal4-RORgamma UAS-luciferase reporter, 20 h; series mostly up to 53.6 µM; note: nearly all actives have a fitted effect of over 60% in size
Method in brief: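 Luciferase reporter read in Schneider cells carrying Gal4-RORγ (mouse) and UAS-Photinus luciferase; cells given compound 1 h before 700 uM copper sulfate induction, then incubated 20 h at ambient temperature.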
Potency is the fitted concentration of half-maximal effect.

Chains of the proteins cited; added tags and fusions are not shown. Lines headed by an entry give the natural chain unless they say otherwise; changes in a name come on top.
UniProt P51450: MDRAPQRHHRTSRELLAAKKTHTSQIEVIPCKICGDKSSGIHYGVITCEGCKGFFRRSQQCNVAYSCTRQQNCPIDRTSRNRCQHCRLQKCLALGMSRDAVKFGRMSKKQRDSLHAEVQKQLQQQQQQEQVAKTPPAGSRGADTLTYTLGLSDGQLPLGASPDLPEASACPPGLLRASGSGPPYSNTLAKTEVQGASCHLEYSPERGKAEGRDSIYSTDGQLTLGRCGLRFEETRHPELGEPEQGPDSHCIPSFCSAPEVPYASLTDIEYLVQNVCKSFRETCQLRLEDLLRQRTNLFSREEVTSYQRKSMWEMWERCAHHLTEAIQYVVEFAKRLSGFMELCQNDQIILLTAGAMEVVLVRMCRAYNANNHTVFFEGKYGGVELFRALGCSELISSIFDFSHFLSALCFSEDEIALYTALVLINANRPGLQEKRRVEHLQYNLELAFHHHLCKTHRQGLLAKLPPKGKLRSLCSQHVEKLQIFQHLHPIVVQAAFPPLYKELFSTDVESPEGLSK

Structure (SMILES)	Potency
N#CC1=C(N)OC2=C(C(=O)CCC2)C1C1C=CCCC1 (stereo not given)	inconclusive: 35.5 µM [activator, single point]
CCCC(=O)O[C@H]1C[C@@H](C)N(C(=O)c2ccccc2)c2ccc(C)cc21	inconclusive: 3.16 µM [activator, single point]
Cc1cc(/C=C(\C#N)C(=O)O)c(C)n1CC1CCCO1 (stereo not given)	inactive
CCCc1ccc2oc(C(=O)N(C)CCn3ccnc3C)c(C)c2c1	inactive
NC(=O)c1ccccc1NC(=O)/C=C/c1cccc(Cl)c1	inactive
C/C(O)=c1/ccc2cccc3nc(C)nc1c23	inconclusive: 20 µM [inhibitor, partial curve]
CCc1ccccc1NC(=O)CSC1=C(C#N)C(c2ccc(O)c(OC)c2)C2=C(CCCC2=O)N1 (stereo not given)	inconclusive: 15.8 µM [activator, single point]
CC(=O)OC[C@H]1O[C@H](C/C=N/OC[C@@H](O)[C@H]2O[C@@H]3OC(C)(C)O[C@@H]3[C@H]2O)C=C[C@@H]1OC(C)=O	inactive
CC(=O)N1c2ccccc2C(C)CC12CCCCC2 (stereo not given)	inconclusive: 1.26 µM [activator, partial curve]
COc1ccc(CC(=O)O/N=C(\N)c2ccc(C)cc2)cc1	inconclusive: 4.47 µM [activator, full curve, poor fit]
S=c1[nH]c2cc3ccccc3cc2[nH]1	inconclusive: 35.5 µM [inhibitor, single point] and inconclusive: 6.31 µM [inhibitor, single point]
C/C(=N\NC(=O)C(C)n1nc(C)c([N+](=O)[O-])c1C)c1ccccc1O (stereo not given)	active: 0.141 µM
Clc1ccc(CN2CCN(c3ncnc4scc(-c5cccs5)c34)CC2)cc1	inactive
COC(=O)Cc1ccc(NC(=S)Nc2cccc(C)n2)cc1	active: 4.47 µM
Nc1nc(-c2cccc(NS(=O)(=O)c3ccccc3)c2)cs1	inconclusive: 12.6 µM [inhibitor, single point]
CC1Cc2ccccc2N1C(=O)CSC1=NCCS1 (stereo not given)	inconclusive: 0.112 µM [inhibitor, single point]
Cc1ccc(OCC(=O)Nc2ccc(S(=O)(=O)Nc3ccccn3)cc2)c(C)c1	inactive
Nc1cccc(Oc2ccc3c(c2)C(=O)N(CC2CCCO2)C3=O)c1 (stereo not given)	inconclusive: 1.12 µM [activator, partial curve]
O=C1C(C2=NC(C(=O)O)C3C(=O)N(c4ccc(Cl)cc4)C(=O)C23)=C(O)c2ccccc21 (stereo not given)	inconclusive: 12.6 µM [inhibitor, single point]
O=C(Cc1cccc2ccccc12)NNC(=O)Nc1cccc(Cl)c1	inconclusive: 35.5 µM [inhibitor, single point]
O=C(NCc1ccccc1)c1cc(-n2cnnc2)ccc1Cl	inactive
COc1ccc(NC(=O)CN2CCN(C3c4ccccc4-c4ccccc43)CC2)c(OC)c1	inconclusive: 12.6 µM [activator, partial curve]
COc1ccc(N(Cc2cc3cccc(C)c3[nH]c2=O)C(=O)C2CCCO2)cc1 (stereo not given)	inactive

Some of these compounds in order of SMILES length, rising:
Structure (SMILES)	Potency
S=c1[nH]c2cc3ccccc3cc2[nH]1	inconclusive: 35.5 µM [inhibitor, single point] and inconclusive: 6.31 µM [inhibitor, single point]
CC1Cc2ccccc2N1C(=O)CSC1=NCCS1 (stereo not given)	inconclusive: 0.112 µM [inhibitor, single point]
COc1ccc(CC(=O)O/N=C(\N)c2ccc(C)cc2)cc1	inconclusive: 4.47 µM [activator, full curve, poor fit]
Nc1nc(-c2cccc(NS(=O)(=O)c3ccccc3)c2)cs1	inconclusive: 12.6 µM [inhibitor, single point]
O=C(Cc1cccc2ccccc12)NNC(=O)Nc1cccc(Cl)c1	inconclusive: 35.5 µM [inhibitor, single point]
Nc1cccc(Oc2ccc3c(c2)C(=O)N(CC2CCCO2)C3=O)c1 (stereo not given)	inconclusive: 1.12 µM [activator, partial curve]
Clc1ccc(CN2CCN(c3ncnc4scc(-c5cccs5)c34)CC2)cc1	inactive
O=C1C(C2=NC(C(=O)O)C3C(=O)N(c4ccc(Cl)cc4)C(=O)C23)=C(O)c2ccccc21 (stereo not given)	inconclusive: 12.6 µM [inhibitor, single point]
CC(=O)OC[C@H]1O[C@H](C/C=N/OC[C@@H](O)[C@H]2O[C@@H]3OC(C)(C)O[C@@H]3[C@H]2O)C=C[C@@H]1OC(C)=O	inactive

Remaining list, next part

Structure (SMILES)	Potency
Cn1c(SCC(=O)Nc2ccccc2)nc2c([nH]c3ccccc32)c1=O	inconclusive: 25.1 µM [inhibitor, single point]
COc1cccc(N/C=C/C(=O)c2ccc(Cl)cc2)c1	active: 10 µM
CCOc1cc(/C=N/NC(=O)c2cccs2)cc([N+](=O)[O-])c1O	inconclusive: 12.6 µM [inhibitor, single point]
CC1CCCN(C(=O)Cn2nnc(-c3ccc([N+](=O)[O-])cc3)n2)C1 (stereo not given)	inactive
COc1cccc(NC(=O)c2ccccc2-c2nc(-c3ccc(Cl)cc3)no2)c1	inconclusive: 2.51 µM [activator, full curve, poor fit]
CCCn1c(-c2ccc(OC)cc2)nc2ccccc21	inconclusive: 35.5 µM [inhibitor, single point]
CC(C)(O)C(=O)N=Nc1c(O)[nH]c2ccccc12	inconclusive: 20 µM [inhibitor, single point]
Clc1cccc(Cl)c1C1=NOC(c2nnc(-c3ccccc3)o2)C1 (stereo not given)	inconclusive: 0.708 µM [activator, full curve, poor fit]
CC(=O)NC(CC(=O)NCc1ccncc1)c1ccccc1 (stereo not given)	inconclusive: 22.4 µM [inhibitor, single point]
COC(=O)c1sccc1NC(=S)Nc1cc(C)cc(C)c1	active: 5.01 µM
O=C(NCc1ccc(Cl)cc1)c1cccnc1	inactive
O=C(CSc1nc2c(sc3ccccc32)c(=O)n1CCO)NCc1ccco1	inconclusive: 5.62 µM [activator, partial curve]
O=C(N/N=C\C=C\c1ccco1)c1cc(-c2ccc3ccccc3c2)n[nH]1	active: 2.24 µM
CCOCCc1nnc(NC(=O)C(C)Oc2ccccc2)s1 (stereo not given)	inactive
COc1cccc(/C=N/n2c(C3CCCCC3)n[nH]c2=S)c1O	active: 10 µM
CC(C)CNC(=S)NC(=O)c1csc([N+](=O)[O-])c1	inconclusive: 1.12 µM [inhibitor, full curve, poor fit]
COc1cc2c(cc1NC(=O)CSc1nc3ccc(C)cc3[nH]1)oc1ccccc12	inconclusive: 11.2 µM [inhibitor, single point]
CCn1c(SCc2nc(-c3ccccc3)no2)nnc1-c1ccco1	inconclusive: 8.91 µM [activator, partial curve, poor fit]
O=S(=O)(c1ccccc1)N1N=C(c2ccccc2)CC1c1ccccc1F (stereo not given)	inconclusive: 15.8 µM [activator, single point]
COC(=O)CCCCCN1C(=O)NC(c2ccccc2)C(C(=O)OCc2ccccc2)=C1C (stereo not given)	inconclusive: 35.5 µM [activator, partial curve]
CS(=O)(=O)c1ccc2nc(NC(=O)c3cccc(NS(=O)(=O)c4ccc(F)c(F)c4)c3)sc2c1	inconclusive: 3.98 µM [activator, full curve, poor fit]
CCOC(=O)c1c(C)n(-c2ccc(C)cc2)c2ccc(O)c(CN(C)C)c12	inconclusive: 17.8 µM [inhibitor, single point]
